Data: publication PMC12548438
Like-named read-outs stand apart in the source and are kept apart here. Results are given in words; binding and its absence hold for the method and conditions named. In cells and extracts the contact can be indirect. Some entries that bind do so weakly or less than the wild type. For part of these data: Sequences can lack the tags named with a protein.

Chains of the proteins cited; added tags and fusions are not shown. Lines headed by an entry give the natural chain unless they say otherwise; changes in a name come on top.
UniProt Q06732, whole entry: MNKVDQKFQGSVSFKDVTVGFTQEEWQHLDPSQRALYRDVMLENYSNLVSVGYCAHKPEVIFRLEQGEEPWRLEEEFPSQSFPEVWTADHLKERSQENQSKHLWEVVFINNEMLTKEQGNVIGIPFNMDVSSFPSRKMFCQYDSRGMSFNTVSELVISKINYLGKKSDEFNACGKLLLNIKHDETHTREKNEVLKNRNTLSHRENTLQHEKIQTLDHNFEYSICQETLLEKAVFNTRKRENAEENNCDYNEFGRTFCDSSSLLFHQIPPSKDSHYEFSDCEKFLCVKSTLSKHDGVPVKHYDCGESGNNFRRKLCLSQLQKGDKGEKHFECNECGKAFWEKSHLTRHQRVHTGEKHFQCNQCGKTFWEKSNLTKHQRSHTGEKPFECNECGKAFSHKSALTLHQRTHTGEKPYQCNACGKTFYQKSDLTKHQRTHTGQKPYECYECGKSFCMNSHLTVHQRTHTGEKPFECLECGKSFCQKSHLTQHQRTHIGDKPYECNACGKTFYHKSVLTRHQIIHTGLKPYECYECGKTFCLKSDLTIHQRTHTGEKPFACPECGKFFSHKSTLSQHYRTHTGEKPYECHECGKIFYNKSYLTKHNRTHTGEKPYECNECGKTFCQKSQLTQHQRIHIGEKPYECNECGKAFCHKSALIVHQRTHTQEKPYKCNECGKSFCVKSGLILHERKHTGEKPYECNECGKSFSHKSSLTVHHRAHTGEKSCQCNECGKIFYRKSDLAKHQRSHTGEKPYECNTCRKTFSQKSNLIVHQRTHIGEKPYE
UniProt P29590, whole entry: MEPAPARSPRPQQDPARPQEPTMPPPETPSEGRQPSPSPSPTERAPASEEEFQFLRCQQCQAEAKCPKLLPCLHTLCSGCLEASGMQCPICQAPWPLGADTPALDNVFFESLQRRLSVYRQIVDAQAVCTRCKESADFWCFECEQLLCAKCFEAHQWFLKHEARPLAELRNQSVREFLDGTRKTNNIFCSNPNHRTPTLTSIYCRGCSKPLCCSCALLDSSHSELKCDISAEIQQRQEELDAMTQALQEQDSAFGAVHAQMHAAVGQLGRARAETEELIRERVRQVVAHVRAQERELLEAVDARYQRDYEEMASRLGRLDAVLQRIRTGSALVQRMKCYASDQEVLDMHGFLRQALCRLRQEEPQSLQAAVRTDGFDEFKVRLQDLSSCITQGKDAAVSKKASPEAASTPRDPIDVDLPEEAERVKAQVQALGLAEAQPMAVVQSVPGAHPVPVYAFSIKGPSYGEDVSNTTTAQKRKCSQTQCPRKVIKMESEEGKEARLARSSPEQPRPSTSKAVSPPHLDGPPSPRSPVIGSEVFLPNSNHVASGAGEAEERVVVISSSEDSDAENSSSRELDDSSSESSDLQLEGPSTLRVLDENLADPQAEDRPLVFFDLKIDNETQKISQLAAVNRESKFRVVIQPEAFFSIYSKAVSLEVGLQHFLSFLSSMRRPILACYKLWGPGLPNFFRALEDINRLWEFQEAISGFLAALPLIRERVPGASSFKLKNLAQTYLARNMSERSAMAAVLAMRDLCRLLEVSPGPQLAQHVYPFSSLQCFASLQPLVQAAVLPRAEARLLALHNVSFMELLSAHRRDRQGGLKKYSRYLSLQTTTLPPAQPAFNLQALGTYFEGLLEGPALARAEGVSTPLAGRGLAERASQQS
UniProt P04792, whole entry: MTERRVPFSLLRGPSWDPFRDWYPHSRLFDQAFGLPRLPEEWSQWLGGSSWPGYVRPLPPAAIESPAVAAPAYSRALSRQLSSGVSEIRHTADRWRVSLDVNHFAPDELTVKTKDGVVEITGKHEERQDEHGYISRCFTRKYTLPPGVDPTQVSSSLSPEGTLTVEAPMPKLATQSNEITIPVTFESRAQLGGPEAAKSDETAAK

B1: HSPB8-HA (heat shock protein beta-8, HA-tagged) (protein, UniProt Q9UJY1 1-196)
chain: MADGQMPFSCHYPSRLRRDPFRDSPLSSRLLDDGFGMDPFPDDLTASWPDWALPRLSSAWPGTLRSGMVPRGPTATARFGVPAEGRTPPPFPGEPWKVCVNVHSFKPEELMVKTKDGYVEVSGKHEEKQQEGGIVSKNFTKKIQLPAEVDPVTVFASLSPEGLLIIEAPQVPPYSTFGESSFNNELPQDSQEVTCT

What was measured:
[1] = molecular target: JEV NS5-FLAG (nonstructural protein 5, FLAG-tagged) (Japanese encephalitis virus, strain RP9) (UniProt P27395); assay: co-IP
[2] = molecular target: ZNF33B-HA (zinc finger protein 33B, HA-tagged) (UniProt Q06732); assay: co-IP
[3] = molecular target: PML-HA (promyelocytic leukemia protein, HA-tagged) (UniProt P29590); assay: co-IP; ZNF33B with PML (Fig. S8A) and with UBC9 (Fig. S8C); legend not shown, constructs and antibody of the precipitation not told
[4] = molecular target: JEV NS5-FLAG (nonstructural protein 5, FLAG-tagged) (Japanese encephalitis virus, strain RP9) (UniProt P27395); assay: co-IP; remark: listed apart in the source

| Molecule | binding [1] | other results |
| --- | --- | --- |
| HSPB1-HA (Heat Shock Protein Beta-1, HA-tagged) (from UniProt P04792 1-205) | binds | – |
| JEV NS5-FLAG (nonstructural protein 5, FLAG-tagged) (from UniProt P27395) | – | binding [2]: binds |
| ZNF33B (construct of the supplementary co-IPs, Fig. S3 and Fig. S8; tag not shown) (from UniProt Q06732 1-778) | – | binding [3]: binds |
| ZNF33B-HA (zinc finger protein 33B, HA-tagged) (from UniProt Q06732 1-778) | binds | – |
| ZNF33B-MYC (zinc finger protein 33B, MYC-tagged) (from UniProt Q06732 1-778) | binds | – |
| B1 | – | binding [4]: binds |
